Data taken from publication PMC11737211.
These are yes or no findings as the source states them, for the method shown. In cells and extracts the contact can be indirect. Some entries that bind do so weakly or less than the wild type. For some of these results: Where a sequence is shown, tags or fusion partners need not be part of it.

Amino acid sequences for entries named in this document (tags omitted).
UniProt Q15717: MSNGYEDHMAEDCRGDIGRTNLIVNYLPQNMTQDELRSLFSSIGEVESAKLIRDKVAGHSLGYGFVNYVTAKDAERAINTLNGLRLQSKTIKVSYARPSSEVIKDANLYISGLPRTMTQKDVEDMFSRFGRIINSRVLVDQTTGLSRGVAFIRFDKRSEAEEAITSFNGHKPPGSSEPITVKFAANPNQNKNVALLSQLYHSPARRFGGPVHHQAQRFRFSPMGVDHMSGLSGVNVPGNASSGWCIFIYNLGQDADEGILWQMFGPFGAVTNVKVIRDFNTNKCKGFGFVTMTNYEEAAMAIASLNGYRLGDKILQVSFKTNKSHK
UniProt P26599: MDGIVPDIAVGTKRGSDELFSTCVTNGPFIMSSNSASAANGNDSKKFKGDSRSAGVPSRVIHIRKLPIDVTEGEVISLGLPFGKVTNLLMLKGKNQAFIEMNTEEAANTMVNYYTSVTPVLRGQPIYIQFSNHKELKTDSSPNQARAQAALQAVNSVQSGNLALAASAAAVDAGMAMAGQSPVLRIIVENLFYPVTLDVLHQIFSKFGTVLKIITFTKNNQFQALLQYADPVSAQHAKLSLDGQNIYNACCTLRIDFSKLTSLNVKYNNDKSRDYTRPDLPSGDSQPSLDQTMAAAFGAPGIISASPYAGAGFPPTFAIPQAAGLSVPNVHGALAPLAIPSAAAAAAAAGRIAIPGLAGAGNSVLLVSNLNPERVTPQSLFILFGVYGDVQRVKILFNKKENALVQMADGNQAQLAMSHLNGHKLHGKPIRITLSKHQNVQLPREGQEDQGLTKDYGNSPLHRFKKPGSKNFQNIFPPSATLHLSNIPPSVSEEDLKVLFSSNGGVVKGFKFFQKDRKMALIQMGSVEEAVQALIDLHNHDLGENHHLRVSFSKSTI

What was measured:
[1] = molecular target: T1, cap methyltransferase 1 (CMTR1) (human (endogenous in AGS)) (UniProt Q8N1G2); assay: co-IP; endogenous proteins in AGS cells; Protein A/G Magnetic Beads, western blot; also in cells with stable over-expression or silencing of SNORA37 (interaction facilitated or attenuated)
T1 sequence: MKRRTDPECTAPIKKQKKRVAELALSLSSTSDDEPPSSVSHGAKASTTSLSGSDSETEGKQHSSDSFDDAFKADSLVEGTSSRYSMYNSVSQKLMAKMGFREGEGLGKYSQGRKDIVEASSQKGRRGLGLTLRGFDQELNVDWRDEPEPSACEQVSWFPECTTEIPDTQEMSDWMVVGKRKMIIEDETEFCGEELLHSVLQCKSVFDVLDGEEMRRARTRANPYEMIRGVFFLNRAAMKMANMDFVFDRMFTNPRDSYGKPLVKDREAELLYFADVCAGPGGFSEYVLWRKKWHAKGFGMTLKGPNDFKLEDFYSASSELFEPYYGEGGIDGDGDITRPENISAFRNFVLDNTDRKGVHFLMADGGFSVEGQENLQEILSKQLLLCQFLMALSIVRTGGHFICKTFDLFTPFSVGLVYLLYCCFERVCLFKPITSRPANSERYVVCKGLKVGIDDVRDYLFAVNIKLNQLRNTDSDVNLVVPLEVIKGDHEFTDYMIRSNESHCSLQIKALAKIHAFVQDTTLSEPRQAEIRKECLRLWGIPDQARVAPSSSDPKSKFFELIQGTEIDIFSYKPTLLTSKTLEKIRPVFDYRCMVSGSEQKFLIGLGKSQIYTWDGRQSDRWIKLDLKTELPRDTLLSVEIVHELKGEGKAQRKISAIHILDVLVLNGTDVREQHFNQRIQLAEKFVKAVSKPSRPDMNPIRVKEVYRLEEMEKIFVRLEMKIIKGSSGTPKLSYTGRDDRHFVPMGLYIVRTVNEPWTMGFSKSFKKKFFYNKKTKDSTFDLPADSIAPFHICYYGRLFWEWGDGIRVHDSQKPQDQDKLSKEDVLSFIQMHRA

[2] = molecular target: T2, CMTR1 BiFC fusion (pBiFC-VN173-CMTR1 in the legends; pBiFC-VC155 in the methods) (human) (UniProt Q8N1G2); assay: split reporter; BiFC in HGC-27 cells co-transfected with the pBiFC-VN173 and pBiFC-VC155 constructs for 24 h, fixed, confocal microscopy; also in cells with sh-Scb or sh-SNORA37 #1
T2 sequence: T1 sequence

[3] = molecular target: T3, HA-tagged CMTR1 (full-length) (human) (UniProt Q8N1G2); assay: co-IP; AGS cells transfected with full-length or truncations of HA-tagged CMTR1 and Flag-tagged ELAVL1 constructs; Protein A/G Magnetic Beads, western blot
T3 sequence: T1 sequence

binding [1]	Substance	further results
binds	ELAV like RNA binding protein 1 (ELAVL1) (from UniProt Q15717 1-326)	
	ELAVL1 BiFC fusion (pBiFC-VC155-ELAVL1 in the legends; pBiFC-VN173 in the methods) (from UniProt Q15717 1-326)	binding [2]: binds
	Flag-tagged ELAVL1 (full-length) (from UniProt Q15717 1-326)	binding [3]: binds
binds	polypyrimidine tract-binding protein 1 (PTBP1) (from UniProt P26599 1-557)	
